{
  "source": "patent US20220073631A1",
  "binders": {"B1": {"name": "QX005N (PD2-31) (antibody, V domains shown)", "VH": "EVQLVESGGGLVQPGGSLRLSCAASGIDLRTNSMSWVRQAPGKGLEWVGIIGSSGYMDYASWAKGRFTISRDNSKNTLYLQMNSLRAEDTAVYYCARHGDSSSFALWGQGTLVTVSS", "VL": "DIQMTQSPSSLSASVGDRVTITCRASESVYKNNRLSWYQQKPGKAPKLLIYEASKVASGVPSRFSGSGSGTDFTLTISSLQPEDFATYYCAGAYRGNIYPFGQGTKVEIK"}},
  "biological_target": "extracellular domain of marmoset IL-4Rα (Gly 24-His 232) with C-terminus his-tag (marmoset)",
  "assay": "SPR, Biacore T200, by the methods of Example 2",
  "note": "No constants are given. Whether binding was seen depends on the method and setting. A result given as binding can be weak or reduced; the word gives no strength.",
  "data": [
    {"binder": "B1", "values": [
      {"measurement": "binding", "result": "binds"}
    ]}
  ]
}
